Laboratory results reported in PMC12427801, “Deciphering α-L-Fucosidase Activity Contribution in Human and Mouse: Tissue α-L-Fucosidase FUCA1 Meets Plasma α-L-Fucosidase FUCA2” (Cells, 2025).
No constants are given. Whether binding was seen depends on the method and setting. Some entries that bind do so weakly or less than the wild type. For some of these results: Sequences can lack the tags named with a protein.

What was measured:
[1] = target: native mouse tissue α-L-fucosidase 1 (Fuca1) from liver lysosome-enriched fractions (tritosomes) (mouse (endogenous in liver)) (UniProt Q99LJ1); assay: SEC; Superdex 200 Increase 10/300 GL, PBS pH 7.4; lysosome-enriched fraction (tritosomes) of mouse liver; fractions tested by 4-MUF fucosidase activity
[2] = target: native mouse tissue α-L-fucosidase 1 (Fuca1) from liver lysosome-enriched fractions (tritosomes) (mouse (endogenous in liver)) (UniProt Q99LJ1); assay: SEC; Superdex 200 Increase 10/300 GL, McIlvaine buffer pH 4.6; lysosome-enriched fraction (tritosomes) of mouse liver; fractions tested by 4-MUF fucosidase activity
[3] = target: untagged human tissue α-L-fucosidase 1 (FUCA1) (human) (UniProt P04066); assay: SEC; Superdex 200 Increase 10/300 GL, PBS pH 7.4, 0.3 mL/min; purified protein; fractions tested by 4-MUF fucosidase activity; both purified
[4] = target: H6-tagged human plasma α-L-fucosidase 2 (FUCA2-H6) (human) (UniProt Q9BTY2); assay: SEC; Superdex 200 Increase 10/300 GL, McIlvaine buffer pH 4.6, 0.3 mL/min; purified protein; fractions tested by 4-MUF fucosidase activity (FUCA1) or H6-tag western blot (FUCA2-H6); both purified

B1: native mouse tissue α-L-fucosidase 1 (Fuca1) from liver lysosome-enriched fractions (tritosomes) (enzyme, UniProt Q99LJ1 18-452)
chain: LAPRRFTPDWQSLDSRPLPSWFDEAKFGVFVHWGVFSVPAWGSEWFWWHWQGDRMPAYQRFMTENYPPGFSYADFAPQFTARFFHPDQWAELFQAAGAKYVVLTTKHHEGFTNWPSPVSWNWNSKDVGPHRDLVGELGAAVRKRNIRYGLYHSLLEWFHPLYLLDKKNGFKTQHFVRAKTMPELYDLVNSYKPDLIWSDGEWECPDTYWNSTSFLAWLYNDSPVKDEVIVNDRWGQNCSCHHGGYYNCQDKYKPQSLPDHKWEMCTSMDRASWGYRKDMTMSTIAKENEIIEELVQTVSLGGNYLLNIGPTKDGLIVPIFQERLLAVGKWLQINGEAIYASKPWRVQSEKNKTVVWYTTKNATVYATFLYWPENGIVNLKSPKTTSATKITMLGLEGDLSWTQDPLEGVLISLPQLPPTVLPVEFAWTLKLTKVN
binding [1]: no binding (condition: at pH 7.4 (PBS)) | binding [2]: binds

B2: untagged human tissue α-L-fucosidase 1 (FUCA1) (enzyme, UniProt P04066 32-466, looked up)
chain: QPPRRYTPDWPSLDSRPLPAWFDEAKFGVFIHWGVFSVPAWGSEWFWWHWQGEGRPQYQRFMRDNYPPGFSYADFGPQFTARFFHPEEWADLFQAAGAKYVVLTTKHHEGFTNWPSPVSWNWNSKDVGPHRDLVGELGTALRKRNIRYGLYHSLLEWFHPLYLLDKKNGFKTQHFVSAKTMPELYDLVNSYKPDLIWSDGEWECPDTYWNSTNFLSWLYNDSPVKDEVVVNDRWGQNCSCHHGGYYNCEDKFKPQSLPDHKWEMCTSIDKFSWGYRRDMALSDVTEESEIISELVQTVSLGGNYLLNIGPTKDGLIVPIFQERLLAVGKWLSINGEAIYASKPWRVQWEKNTTSVWYTSKGSAVYAIFLHWPENGVLNLESPITTSTTKITMLGIQGDLKWSTDPDKGLFISLPQLPPSAVPAEFAWTIKLTGVK
notes: human tissue α-L-fucosidase FUCA1; untagged, secreted into the medium; N-glycosylated; also called untagged FUCA1; hFUCA1; source: CHO-K1 cells, stably expressing, conditioned medium, purified (ammonium sulfate precipitation, strong cation exchange)
binding [3]: no binding (condition: at pH 7.4 (PBS))

B3: H6-tagged human plasma α-L-fucosidase 2 (FUCA2-H6) (protein, UniProt Q9BTY2-1 29-467)
chain: HSATRFDPTWESLDARQLPAWFDQAKFGIFIHWGVFSVPSFGSEWFWWYWQKEKIPKYVEFMKDNYPPSFKYEDFGPLFTAKFFNANQWADIFQASGAKYIVLTSKHHEGFTLWGSEYSWNWNAIDEGPKRDIVKELEVAIRNRTDLRFGLYYSLFEWFHPLFLEDESSSFHKRQFPVSKTLPELYELVNNYQPEVLWSDGDGGAPDQYWNSTGFLAWLYNESPVRGTVVTNDRWGAGSICKHGGFYTCSDRYNPGHLLPHKWENCMTIDKLSWGYRREAGISDYLTIEELVKQLVETVSCGGNLLMNIGPTLDGTISVVFEERLRQMGSWLKVNGEAIYETHTWRSQNDTVTPDVWYTSKPKEKLVYAIFLKWPTSGQLFLGHPKAILGATEVKLLGHGQPLNWISLEQNGIMVELPQLTIHQMPCKWGWALALTNVI
binding [4]: no binding
